Results are given in words; binding and its absence hold for the method and conditions named.

For assay [1], the target named is FIBRINOGEN (Kennedy Institute of Rheumatology). Put plainly: western blot, reducing SDS-PAGE.
Assay [2] shares this target. Put plainly: condition: 500 ng of target per lane; antibody 0.25 ug/ml; western blot, 10% SDS-PAGE under reducing conditions, nitrocellulose; B12 IgG4 MAb 1:20,000 overnight at 4 C; 5 min exposure. In general terms: A western blot detects proteins with antibodies after separation by electrophoresis.

B1: B12 human IgG4 (antibody, V domains shown)
VH: QVQLVESGGGLVQPGRSLRLSCAASGFTFDDYAMHWVRQAPGKGLEWVSGISGSGGSTYYADSVKGRFTISRDNAKNSLYLQMNSLRAEDTALYYCAKDISAVPDTFDIWGQGTMVTVSS
VL: DIQMTQSPASLPTPVGDRVTITCRASQYIQGFLNWYQQKPGKAPKLLIYDASNLETGVPSRFSGSGSGTDFTLTISSLQPEDFATYYCQQSYSTPQTFGQGTKVDIKR
notes: human IgG4 with hinge S241P; also called B12 parent; B12-hIgG4
For B1, the binding result in assay [1] was “no binding (tested: 0.25 ug/ml)”; in assay [2] it was “no binding”.

(Values after US20170306005A1 (NASCIENT, published 2017).)
